No constants are given. Whether binding was seen depends on the method and setting. Some binding calls cover weakened binding; strength is not graded here.
Biological target: Cre^Cat (interdomain linker and C-terminal catalytic domain of Cre recombinase, residues 127-343) (UniProt P06956)
Experiment: intermolecular PRE-NMR

B1: MTSL tagged-Cre^Cat C155A/C240A/D343C (domain or fragment, UniProt P06956 127-343, looked up)
chain: AGERAKQALAFERTDFDQVRSLMENSDRAQDIRNLAFLGIAYNTLLRIAEIARIRVKDISRTDGGRMLIHIGRTKTLVSTAGVEKALSLGVTKLVERWISVSGVADDPNNYLFARVRKNGVAAPSATSQLSTRALEGIFEATHRLIYGAKDDSGQRYLAWSGHSARVGAARDMARAGVSIPEIMQAGGWTNVNIVMNYIRNLDSETGAMVRLLEDGC
modifications: MTSL paramagnetic spin probe on C-terminal residue C343
With B1 the binding was “binds weakly”.

Source: article doi:10.1101/2020.05.24.113654 (bioRxiv, 2020)
